Article PMC7541391
Results are given in words; binding and its absence hold for the method and conditions named. In cells and extracts the contact can be indirect. Some entries that bind do so weakly or less than the wild type. Sequences can lack the tags named with a protein.

Molecular target: T1, GST-FABP7wt (mouse) (UniProt P51880)
T1 sequence: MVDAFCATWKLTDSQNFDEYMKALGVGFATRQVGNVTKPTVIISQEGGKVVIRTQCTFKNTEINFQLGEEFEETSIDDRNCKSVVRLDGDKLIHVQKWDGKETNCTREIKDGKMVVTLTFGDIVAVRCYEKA
Experiment: pull-down; GST-FABP7 from Sf21 cells immobilised on Glutathione Sepharose 4B, incubated at 4 °C for 4 h with lysate of FABP7-KO primary cultured astrocytes or NIH-3T3 cells; western blot; only the target purified

B1: ATP-citrate lyase (mouse, from astrocytes and NIH-3T3 cells) (enzyme, UniProt Q91V92 1-1091)
chain: MSAKAISEQTGKELLYKYICTTSAIQNRFKYARVTPDTDWAHLLQDHPWLLSQSLVVKPDQLIKRRGKLGLVGVNLSLDGVKSWLKPRLGHEATVGKAKGFLKNFLIEPFVPHSQAEEFYVCIYATREGDYVLFHHEGGVDVGDVDAKAQKLLVGVDEKLNTEDIKRHLLVHAPEDKKEVLASFISGLFNFYEDLYFTYLEINPLVVTKDGVYILDLAAKVDATADYICKVKWGDIEFPPPFGREAYPEEAYIADLDAKSGASLKLTLLNPKGRIWTMVAGGGASVVYSDTICDLGGVNELANYGEYSGAPSEQQTYDYAKTILSLMTREKHPEGKILIIGGSIANFTNVAATFKGIVRAIRDYQGPLKEHEVTIFVRRGGPNYQEGLRVMGEVGKTTGIPIHVFGTETHMTAIVGMALGHRPIPNQPPTAAHTANFLLNASGSTSTPAPSRTASFSESRADEVAPAKKAKPAMPQGKSATLFSRHTKAIVWGMQTRAVQGMLDFDYVCSRDEPSVAAMVYPFTGDHKQKFYWGHKEILIPVFKNMADAMKKHPEVDVLINFASLRSAYDSTMETMNYAQIRTIAIIAEGIPEALTRKLIKKADQKGVTIIGPATVGGIKPGCFKIGNTGGMLDNILASKLYRPGSVAYVSRSGGMSNELNNIISRTTDGVYEGVAIGGDRYPGSTFMDHVLRYQDTPGVKMIVVLGEIGGTEEYKICRGIKEGRLTKPVVCWCIGTCATMFSSEVQFGHAGACANQASETAVAKNQALKEAGVFVPRSFDELGEIIQSVYEDLVAKGAIVPAQEVPPPTVPMDYSWARELGLIRKPASFMTSICDERGQELIYAGMPITEVFKEEMGIGGVLGLLWFQRRLPKYSCQFIEMCLMVTADHGPAVSGAHNTIICARAGKDLVSSLTSGLLTIGDRFGGALDAAAKMFSKAFDSGIIPMEFVNKMKKEGKLIMGIGHRVKSINNPDMRVQILKDFVKQHFPATPLLDYALEVEKITTSKKPNLILNVDGFIGVAFVDMLRNCGSFTREEADEYVDIGALNGIFVLGRSMGFIGHYLDQKRLKQGLYRHPWDDISYVLPEHMSM
- binding: binds
